The list shows a part of the results.
Legend:
Assay in all cases: log2 fold change, soluble protein after heating vs DMSO (PISA); higher = thermal stabilisation; K562 lysate, 10 uM; active = over 0.2 and 3.5 SD of the protein, either way, in both replicates (recomputed)
erlotinib = compound: C#Cc1cccc(Nc2ncnc3cc(OCCOC)c(OCCOC)cc23)c1 [erlotinib]
Summary of the method: (§1)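 Dounce homogenisation of K562 pellets in PBS pH 7.4 with 1 mM MgCl2 produced a crude extract, used at 1 mg/mL protein. Exposure to 10 μM compound lasted 30 min, and aliquots were then heated for 3 min across 48°C-58°C, pooled and brought to 0.5% NP-40 at 4°C. The supernatant after 21,000xg for 90 min was quantified by TMTpro 16plex LC-MS/MS with channel sums equalised. Duplicate values are given as log-two fold change in thermal stability relative to solvent controls.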

Protein sequences, listed by entry. Tags and fused reporters are not part of them. Lines headed by an entry give the natural chain unless they say otherwise; changes in a name come on top.
UniProt Q14376: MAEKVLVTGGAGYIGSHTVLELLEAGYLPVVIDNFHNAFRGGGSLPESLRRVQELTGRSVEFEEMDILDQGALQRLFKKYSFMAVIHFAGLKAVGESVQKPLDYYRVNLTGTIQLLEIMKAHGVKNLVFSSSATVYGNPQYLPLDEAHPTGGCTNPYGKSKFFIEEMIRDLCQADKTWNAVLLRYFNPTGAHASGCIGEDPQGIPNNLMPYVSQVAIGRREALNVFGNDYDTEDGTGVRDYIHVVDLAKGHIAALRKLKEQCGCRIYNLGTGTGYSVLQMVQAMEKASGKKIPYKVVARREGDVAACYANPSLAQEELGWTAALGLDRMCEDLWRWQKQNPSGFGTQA
UniProt P51116, whole entry, looked up: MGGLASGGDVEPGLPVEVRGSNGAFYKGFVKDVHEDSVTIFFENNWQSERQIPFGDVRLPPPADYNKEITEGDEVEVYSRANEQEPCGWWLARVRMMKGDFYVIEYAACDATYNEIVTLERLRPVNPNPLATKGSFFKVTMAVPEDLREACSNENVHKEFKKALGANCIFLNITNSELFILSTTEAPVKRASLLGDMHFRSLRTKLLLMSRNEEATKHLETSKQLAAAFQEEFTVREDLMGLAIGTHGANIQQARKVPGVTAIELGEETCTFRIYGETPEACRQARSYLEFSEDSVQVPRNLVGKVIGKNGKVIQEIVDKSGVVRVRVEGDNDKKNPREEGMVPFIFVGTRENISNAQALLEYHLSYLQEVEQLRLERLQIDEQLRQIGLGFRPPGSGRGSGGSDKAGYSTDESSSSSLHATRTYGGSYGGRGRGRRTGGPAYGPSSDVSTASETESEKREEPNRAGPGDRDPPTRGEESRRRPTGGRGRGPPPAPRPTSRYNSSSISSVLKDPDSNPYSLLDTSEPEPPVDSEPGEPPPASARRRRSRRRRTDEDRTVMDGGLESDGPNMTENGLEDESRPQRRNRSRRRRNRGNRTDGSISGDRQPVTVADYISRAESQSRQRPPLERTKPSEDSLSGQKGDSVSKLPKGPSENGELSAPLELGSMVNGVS
UniProt P16383: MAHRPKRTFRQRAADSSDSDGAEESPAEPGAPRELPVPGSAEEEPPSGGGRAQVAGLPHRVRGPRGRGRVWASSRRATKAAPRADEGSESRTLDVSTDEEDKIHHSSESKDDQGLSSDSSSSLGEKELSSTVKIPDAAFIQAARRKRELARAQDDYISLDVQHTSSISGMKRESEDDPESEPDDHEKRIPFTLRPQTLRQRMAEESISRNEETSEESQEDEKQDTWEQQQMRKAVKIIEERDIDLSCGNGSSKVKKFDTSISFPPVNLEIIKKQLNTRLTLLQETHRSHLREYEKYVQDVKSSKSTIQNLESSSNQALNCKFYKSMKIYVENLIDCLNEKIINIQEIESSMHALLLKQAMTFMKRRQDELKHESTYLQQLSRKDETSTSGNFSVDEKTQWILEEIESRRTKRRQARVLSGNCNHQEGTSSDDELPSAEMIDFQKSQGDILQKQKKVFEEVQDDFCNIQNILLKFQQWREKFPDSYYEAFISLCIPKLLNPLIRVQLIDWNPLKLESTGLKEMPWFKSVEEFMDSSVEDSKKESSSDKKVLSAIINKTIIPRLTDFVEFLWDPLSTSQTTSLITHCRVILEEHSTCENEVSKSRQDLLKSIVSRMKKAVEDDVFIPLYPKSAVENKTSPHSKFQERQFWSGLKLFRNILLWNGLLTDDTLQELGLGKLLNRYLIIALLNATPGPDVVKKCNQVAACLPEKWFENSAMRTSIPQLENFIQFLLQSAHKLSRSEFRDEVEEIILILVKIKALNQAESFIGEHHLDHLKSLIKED
UniProt O15117, whole entry, looked up: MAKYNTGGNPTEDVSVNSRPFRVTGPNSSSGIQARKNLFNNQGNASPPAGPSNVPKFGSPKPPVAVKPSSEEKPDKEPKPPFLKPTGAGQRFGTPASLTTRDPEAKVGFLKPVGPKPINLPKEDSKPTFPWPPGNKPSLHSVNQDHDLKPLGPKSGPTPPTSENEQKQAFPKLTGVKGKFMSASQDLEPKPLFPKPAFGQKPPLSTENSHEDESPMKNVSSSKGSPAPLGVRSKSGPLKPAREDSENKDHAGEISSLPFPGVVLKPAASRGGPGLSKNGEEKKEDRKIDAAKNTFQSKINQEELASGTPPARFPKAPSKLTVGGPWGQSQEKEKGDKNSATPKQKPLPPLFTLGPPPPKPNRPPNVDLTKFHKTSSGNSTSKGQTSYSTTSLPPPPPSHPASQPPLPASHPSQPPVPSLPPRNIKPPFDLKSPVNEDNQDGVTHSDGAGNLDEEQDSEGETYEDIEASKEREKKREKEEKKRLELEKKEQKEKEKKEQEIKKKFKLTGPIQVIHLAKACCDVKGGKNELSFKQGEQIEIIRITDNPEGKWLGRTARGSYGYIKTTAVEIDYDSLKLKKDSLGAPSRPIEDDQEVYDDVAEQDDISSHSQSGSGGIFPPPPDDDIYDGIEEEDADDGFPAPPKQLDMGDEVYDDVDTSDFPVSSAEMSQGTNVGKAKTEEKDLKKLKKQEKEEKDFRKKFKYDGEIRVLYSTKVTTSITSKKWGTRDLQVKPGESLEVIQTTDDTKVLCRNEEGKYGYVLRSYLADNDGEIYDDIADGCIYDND
UniProt Q10471: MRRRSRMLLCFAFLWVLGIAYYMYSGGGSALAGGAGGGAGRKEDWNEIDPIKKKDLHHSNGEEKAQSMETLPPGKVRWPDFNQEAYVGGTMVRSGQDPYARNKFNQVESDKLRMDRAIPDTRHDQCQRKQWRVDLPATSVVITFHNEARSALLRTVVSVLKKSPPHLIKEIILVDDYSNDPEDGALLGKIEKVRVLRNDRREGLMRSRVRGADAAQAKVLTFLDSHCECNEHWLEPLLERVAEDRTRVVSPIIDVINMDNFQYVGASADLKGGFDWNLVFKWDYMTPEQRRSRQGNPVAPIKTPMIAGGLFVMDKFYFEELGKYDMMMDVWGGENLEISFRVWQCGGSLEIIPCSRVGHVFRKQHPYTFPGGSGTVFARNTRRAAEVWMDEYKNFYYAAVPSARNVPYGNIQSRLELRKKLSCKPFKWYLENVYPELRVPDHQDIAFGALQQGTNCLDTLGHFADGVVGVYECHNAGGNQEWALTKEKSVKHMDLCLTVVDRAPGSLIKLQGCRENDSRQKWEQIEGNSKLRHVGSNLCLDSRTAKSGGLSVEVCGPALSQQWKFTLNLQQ
UniProt P04066: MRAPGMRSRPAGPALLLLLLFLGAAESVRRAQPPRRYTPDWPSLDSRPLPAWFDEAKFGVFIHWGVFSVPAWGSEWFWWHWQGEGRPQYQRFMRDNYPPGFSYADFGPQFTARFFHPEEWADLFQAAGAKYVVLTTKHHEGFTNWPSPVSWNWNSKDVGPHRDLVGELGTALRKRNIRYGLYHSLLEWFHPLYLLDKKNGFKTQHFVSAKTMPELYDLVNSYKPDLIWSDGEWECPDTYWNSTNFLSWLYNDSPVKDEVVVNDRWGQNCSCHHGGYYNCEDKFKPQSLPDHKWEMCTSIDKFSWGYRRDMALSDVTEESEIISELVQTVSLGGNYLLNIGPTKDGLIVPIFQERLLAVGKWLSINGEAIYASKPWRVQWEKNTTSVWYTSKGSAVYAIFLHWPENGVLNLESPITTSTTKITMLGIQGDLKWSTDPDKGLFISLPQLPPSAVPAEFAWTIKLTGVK
UniProt Q8WXD5: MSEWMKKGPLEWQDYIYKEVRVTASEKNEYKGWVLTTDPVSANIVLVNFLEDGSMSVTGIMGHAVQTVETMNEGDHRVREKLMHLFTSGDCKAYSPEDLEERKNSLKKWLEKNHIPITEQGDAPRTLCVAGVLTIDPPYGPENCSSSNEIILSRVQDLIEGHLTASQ
UniProt Q14C86: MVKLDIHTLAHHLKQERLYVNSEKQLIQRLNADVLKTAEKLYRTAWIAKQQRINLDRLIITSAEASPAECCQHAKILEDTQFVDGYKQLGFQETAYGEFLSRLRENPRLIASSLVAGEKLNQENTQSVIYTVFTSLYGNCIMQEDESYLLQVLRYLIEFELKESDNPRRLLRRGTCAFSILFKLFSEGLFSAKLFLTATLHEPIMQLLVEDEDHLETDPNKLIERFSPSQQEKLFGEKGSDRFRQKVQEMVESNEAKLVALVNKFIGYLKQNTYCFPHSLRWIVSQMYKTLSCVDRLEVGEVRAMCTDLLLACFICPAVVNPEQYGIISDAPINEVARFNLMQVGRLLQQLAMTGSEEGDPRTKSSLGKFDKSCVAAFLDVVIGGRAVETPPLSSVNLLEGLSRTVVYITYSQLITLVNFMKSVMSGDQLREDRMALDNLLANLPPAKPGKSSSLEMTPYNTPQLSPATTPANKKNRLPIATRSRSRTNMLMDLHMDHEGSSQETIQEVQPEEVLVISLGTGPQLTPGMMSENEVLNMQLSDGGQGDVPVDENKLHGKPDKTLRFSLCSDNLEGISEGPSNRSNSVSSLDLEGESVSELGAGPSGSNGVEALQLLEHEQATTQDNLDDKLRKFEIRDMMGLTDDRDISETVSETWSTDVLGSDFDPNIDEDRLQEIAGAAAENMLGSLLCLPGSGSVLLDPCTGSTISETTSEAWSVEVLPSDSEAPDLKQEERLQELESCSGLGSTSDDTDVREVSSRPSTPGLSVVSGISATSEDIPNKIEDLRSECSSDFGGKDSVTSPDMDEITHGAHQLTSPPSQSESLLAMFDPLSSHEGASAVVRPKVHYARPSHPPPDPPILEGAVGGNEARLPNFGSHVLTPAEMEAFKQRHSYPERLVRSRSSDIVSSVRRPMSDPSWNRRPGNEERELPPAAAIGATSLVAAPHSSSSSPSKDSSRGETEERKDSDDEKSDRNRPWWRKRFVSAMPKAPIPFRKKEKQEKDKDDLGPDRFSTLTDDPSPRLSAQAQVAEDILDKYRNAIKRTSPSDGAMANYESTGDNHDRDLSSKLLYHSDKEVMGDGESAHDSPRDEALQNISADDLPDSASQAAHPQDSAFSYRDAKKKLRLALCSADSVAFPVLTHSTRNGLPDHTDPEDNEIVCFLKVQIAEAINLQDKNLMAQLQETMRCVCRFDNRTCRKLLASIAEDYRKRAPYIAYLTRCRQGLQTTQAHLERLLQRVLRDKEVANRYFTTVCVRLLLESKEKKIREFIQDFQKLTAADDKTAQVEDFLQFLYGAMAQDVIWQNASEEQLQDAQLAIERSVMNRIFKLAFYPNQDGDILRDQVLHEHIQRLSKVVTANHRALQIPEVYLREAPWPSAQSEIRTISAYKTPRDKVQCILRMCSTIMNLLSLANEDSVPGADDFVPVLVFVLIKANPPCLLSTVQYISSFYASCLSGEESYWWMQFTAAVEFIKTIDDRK
UniProt Q7L5D6: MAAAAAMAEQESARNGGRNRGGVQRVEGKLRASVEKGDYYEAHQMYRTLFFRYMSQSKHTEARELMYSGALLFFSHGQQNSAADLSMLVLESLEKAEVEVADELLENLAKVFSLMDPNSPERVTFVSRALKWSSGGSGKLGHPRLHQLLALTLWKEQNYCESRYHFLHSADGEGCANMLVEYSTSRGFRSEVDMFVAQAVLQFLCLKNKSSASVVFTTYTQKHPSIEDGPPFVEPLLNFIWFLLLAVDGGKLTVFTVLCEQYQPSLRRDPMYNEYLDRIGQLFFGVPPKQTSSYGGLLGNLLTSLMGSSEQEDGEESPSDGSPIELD
UniProt Q969S9: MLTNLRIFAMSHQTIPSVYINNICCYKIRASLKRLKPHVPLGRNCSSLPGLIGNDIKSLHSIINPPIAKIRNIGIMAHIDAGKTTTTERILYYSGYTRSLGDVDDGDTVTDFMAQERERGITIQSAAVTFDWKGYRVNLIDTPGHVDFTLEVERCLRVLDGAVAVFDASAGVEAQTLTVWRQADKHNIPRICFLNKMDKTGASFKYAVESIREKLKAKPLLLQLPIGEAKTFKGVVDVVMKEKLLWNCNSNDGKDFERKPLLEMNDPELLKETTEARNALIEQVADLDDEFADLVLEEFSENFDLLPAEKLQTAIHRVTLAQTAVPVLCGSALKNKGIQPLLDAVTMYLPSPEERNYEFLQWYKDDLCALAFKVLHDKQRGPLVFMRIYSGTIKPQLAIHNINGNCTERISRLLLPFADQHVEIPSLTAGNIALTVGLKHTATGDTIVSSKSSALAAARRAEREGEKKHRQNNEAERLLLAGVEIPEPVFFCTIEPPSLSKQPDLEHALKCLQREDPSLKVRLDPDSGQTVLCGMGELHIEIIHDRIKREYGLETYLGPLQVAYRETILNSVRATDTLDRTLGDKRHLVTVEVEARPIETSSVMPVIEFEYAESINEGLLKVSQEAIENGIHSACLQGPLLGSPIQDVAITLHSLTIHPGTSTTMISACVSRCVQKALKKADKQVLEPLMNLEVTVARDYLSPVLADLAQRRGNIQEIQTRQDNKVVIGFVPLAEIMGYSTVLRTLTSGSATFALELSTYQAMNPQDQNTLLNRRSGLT

[1] = compound: C/C(=N\NC(=O)C1=CC(=CC=C1)S(=O)(=O)N2CCOCC2)/C3=C(C=CC(=C3)Cl)O
Summary of the method: as §1

[2] = compound: C1=CC(=CC=C1C2=NC3=C(N2)C=C(C=C3)C(=O)N)OC4=CC=C(C=C4)Cl
Summary of the method: as §1

[3] = compound: C1=CC2=C(C=CC(=C2)/C=C\3/C(=O)NC(=NCC4=CC=CS4)S3)N=C1
Summary of the method: as §1

[4] = compound: C1=CC2=NC=CN=C2C=C1/C=C/3\C(=O)NC(=O)S3
Summary of the method: as §1

[5] = compound: C1=CC=C(C=C1)C2=NC(=C(N2)C3=CC=NC=C3)C4=CC(=C(C=C4)Cl)O
Summary of the method: as §1

[6] = compound: C1=CC=C2C(=C1)C3=NNC4=CC=CC(=C43)C2=O
Summary of the method: as §1

[7] = compound: C1CCN(C1)C(=O)NC2=CC=CC(=C2)NC3=NC=C(C(=N3)NCCC4=CN=CN4)Br
Summary of the method: as §1

[8] = compound: C1CN(CCC1(CC2=CC=C(C=C2)Cl)N)C3=NC=NC4=C3C=CN4
Summary of the method: as §1

IRAK-1-4 Inhibitor I = compound: C1COCCN1CCN2C3=CC=CC=C3N=C2NC(=O)C4=CC(=CC=C4)[N+](=O)[O-] [IRAK-1-4 Inhibitor I]
Summary of the method: as §1

ibrutinib = compound: C=CC(=O)N1CCC[C@@H](n2nc(-c3ccc(Oc4ccccc4)cc3)c3c(N)ncnc32)C1 [ibrutinib]
Summary of the method: as §1

[9] = compound: CC(=O)c1cnc2ccc(-c3cc(Cl)c(O)c(Cl)c3)nc2c1N[C@H]1CC[C@H](CN(C)C)CC1
Summary of the method: as §1

ralimetinib = compound: CC(C)(C)Cn1c(N)nc2ccc(-c3[nH]c(C(C)(C)C)nc3-c3ccc(F)cc3)nc21 [ralimetinib]
Summary of the method: as §1

[10] = compound: CC(C)(O)CC(=O)NCCn1ccc2ncnc(Nc3ccc(Oc4cccc(C(F)(F)F)c4)c(Cl)c3)c21
Summary of the method: as §1

[11] = compound: CC(C)C1=C2N=C(C=C(N2N=C1)NCC3=CC=CC=C3)NCCCCCCN
Summary of the method: as §1

[12] = compound: CC1=C(C(CC(=O)N1)C2=CC=C(C=C2)C(F)(F)F)C(=O)NC3=C(C=C4C(=C3)C=NN4)F
Summary of the method: as §1

[13] = compound: CC1=C(C2=C(C=C1)C(=O)C3=CC=CC=C3N2CCCN)C
Summary of the method: as §1

[14] = compound: CC1=C(C=C(C=C1)NC(=O)C2=CC(=CC=C2)C(C)(C)C#N)NC3=CC4=C(C=C3)N=CN(C4=O)C
Summary of the method: as §1

[15] = compound: CC1=C(C=C(C=C1)NC(=O)C2=CC(=CC=C2)N(C)C)NC(=O)C3=CC=C(C=C3)O
Summary of the method: as §1

[16] = compound: CC1=CC=C(C=C1)SC2=C3C=C(SC3=CN=C2)C(=O)N
Summary of the method: as §1

Measured: log2 fold change

GALE (UniProt Q14376)
inactive: erlotinib 0 | [1] 0.025 | [2] -0.108 | [3] 0.008 | [4] -0.001 | [5] -0.025 | [6] -0.061 | [7] -0.028 | [8] -0.006 | IRAK-1-4 Inhibitor I -0.034 | ibrutinib -0.014 | [9] 0.021 | ralimetinib 0.089 | [10] -0.003 | [11] 0.005 | [12] 0.009 | [13] -0.009 | [14] -0.023 | [15] 0.024 | [16] 0.023

FREM2 (UniProt Q5SZK8)
inactive: erlotinib 0.015 | [1] -0.095 | [2] -0.109 | [3] -0.065 | [4] 0.047 | [5] 0.008 | [6] -0.051 | [7] -0.02 | [8] -0.021 | IRAK-1-4 Inhibitor I 0.009 | ibrutinib -0.062 | [9] 0.024 | ralimetinib -0.014 | [10] -0.042 | [11] -0.024 | [12] -0.06 | [13] -0.01 | [14] 0.079 | [15] 0.035 | [16] -0.073

GGA1 isoform 6 (UniProt Q9UJY5)
inactive: erlotinib -0.053 | [1] -0.025 | [2] 0.005 | [3] 0.016 | [4] 0.037 | [5] 0.02 | [6] -0.022 | [7] -0.033 | [8] 0.004 | IRAK-1-4 Inhibitor I 0.023 | ibrutinib -0.042 | [9] -0.015 | ralimetinib -0.06 | [10] -0.039 | [11] -0.035 | [12] 0.008 | [13] 0.007 | [14] 0.018 | [15] 0.011 | [16] -0.027

FXR2 (UniProt P51116)
inactive: erlotinib 0.018 | [1] 0.026 | [2] -0.01 | [3] -0.042 | [4] 0.022 | [5] -0.029 | [6] -0.092 | [7] -0.085 | [8] 0.003 | IRAK-1-4 Inhibitor I -0.075 | ibrutinib 0.027 | [9] -0.008 | ralimetinib 0.028 | [10] 0.004 | [11] 0.026 | [12] 0.024 | [13] 0.004 | [14] -0.005 | [15] -0.018 | [16] 0.011

FOXK1 (UniProt P85037)
inactive: erlotinib 0.014 | [1] -0.029 | [2] 0.038 | [3] 0.013 | [4] -0.057 | [5] -0.011 | [6] 0.007 | [7] -0.036 | [8] 0.013 | IRAK-1-4 Inhibitor I -0.014 | ibrutinib 0.033 | [9] 0.005 | ralimetinib 0.082 | [10] 0.063 | [11] -0.011 | [12] 0.018 | [13] 0.007 | [14] -0.025 | [15] -0.001 | [16] 0.011

GCFC2 (UniProt P16383)
inactive: erlotinib 0.049 | [1] -0.05 | [2] 0.012 | [3] -0.02 | [4] 0.016 | [5] -0.016 | [6] -0.025 | [7] 0 | [8] 0 | IRAK-1-4 Inhibitor I 0.021 | ibrutinib 0.052 | [9] 0.031 | ralimetinib -0.016 | [10] -0.046 | [11] -0.095 | [12] 0.011 | [13] 0.007 | [14] -0.024 | [15] 0.016 | [16] -0.051

GALT (UniProt P07902)
inactive: erlotinib 0.015 | [1] 0.106 | [2] 0.019 | [3] 0.085 | [4] 0.021 | [5] -0.067 | [6] -0.22 | [7] -0.033 | [8] 0.007 | IRAK-1-4 Inhibitor I 0.051 | ibrutinib 0.058 | [9] 0.005 | ralimetinib -0.026 | [10] -0.123 | [11] 0.051 | [12] -0.032 | [13] -0.01 | [14] 0.016 | [15] 0.02 | [16] -0.009

Two entries drawn at random from those above, as already listed:
FOXK1 (UniProt P85037)
inactive: erlotinib 0.014 | [1] -0.029 | [2] 0.038 | [3] 0.013 | [4] -0.057 | [5] -0.011 | [6] 0.007 | [7] -0.036 | [8] 0.013 | IRAK-1-4 Inhibitor I -0.014 | ibrutinib 0.033 | [9] 0.005 | ralimetinib 0.082 | [10] 0.063 | [11] -0.011 | [12] 0.018 | [13] 0.007 | [14] -0.025 | [15] -0.001 | [16] 0.011

GALT (UniProt P07902)
inactive: erlotinib 0.015 | [1] 0.106 | [2] 0.019 | [3] 0.085 | [4] 0.021 | [5] -0.067 | [6] -0.22 | [7] -0.033 | [8] 0.007 | IRAK-1-4 Inhibitor I 0.051 | ibrutinib 0.058 | [9] 0.005 | ralimetinib -0.026 | [10] -0.123 | [11] 0.051 | [12] -0.032 | [13] -0.01 | [14] 0.016 | [15] 0.02 | [16] -0.009

Remaining list, next part:

FYB1 isoform 3 (UniProt O15117)
inactive: erlotinib -0.019 | [1] -0.043 | [2] -0.003 | [3] -0.073 | [4] 0.009 | [5] 0.015 | [6] -0.025 | [7] -0.012 | [8] 0.028 | IRAK-1-4 Inhibitor I 0.024 | ibrutinib -0.008 | [9] -0.01 | ralimetinib -0.022 | [10] -0.008 | [11] 0.005 | [12] -0.017 | [13] -0.042 | [14] 0.059 | [15] 0.008 | [16] -0.013

GALNT2 (UniProt Q10471)
inactive: erlotinib -0.028 | [1] 0.005 | [2] -0.098 | [3] 0.054 | [4] -0.004 | [5] -0.04 | [6] -0.056 | [7] -0.045 | [8] 0.002 | IRAK-1-4 Inhibitor I -0.012 | ibrutinib -0.004 | [9] 0 | ralimetinib 0.006 | [10] 0.022 | [11] -0.005 | [12] 0.015 | [13] 0.031 | [14] -0.041 | [15] -0.012 | [16] -0.016

FUCA1 (UniProt P04066)
inactive: erlotinib 0 | [1] 0.008 | [2] 0.037 | [3] -0.013 | [4] 0.015 | [5] 0.024 | [6] -0.001 | [7] 0.039 | [8] -0.018 | IRAK-1-4 Inhibitor I 0.009 | ibrutinib 0.015 | [9] -0.049 | ralimetinib 0.007 | [10] -0.09 | [11] -0.036 | [12] -0.051 | [13] -0.046 | [14] 0.037 | [15] -0.009 | [16] -0.035

GEMIN6 (UniProt Q8WXD5)
inactive: erlotinib 0.02 | [1] 0.033 | [2] 0.024 | [3] -0.049 | [4] 0.003 | [5] -0.008 | [6] -0.017 | [7] -0.022 | [8] 0.033 | IRAK-1-4 Inhibitor I 0.021 | ibrutinib 0.062 | [9] -0.019 | ralimetinib -0.033 | [10] -0.026 | [11] -0.008 | [12] 0.008 | [13] -0.01 | [14] -0.007 | [15] 0.032 | [16] -0.014

GAPVD1 isoform 6 (UniProt Q14C86)
inactive: erlotinib 0.01 | [1] 0 | [2] -0.051 | [3] 0.01 | [4] 0.019 | [5] 0 | [6] -0.013 | [7] 0.007 | [8] -0.025 | IRAK-1-4 Inhibitor I -0.015 | ibrutinib 0.005 | [9] 0.003 | ralimetinib 0.031 | [10] -0.004 | [11] -0.018 | [12] 0.028 | [13] 0.008 | [14] 0.003 | [15] 0.011 | [16] 0.018

GAB1 isoform 2 (UniProt Q13480)
inactive: erlotinib 0.018 | [1] 0.009 | [2] 0.045 | [3] 0.023 | [4] -0.004 | [5] -0.02 | [6] 0.005 | [7] 0.096 | [8] -0.018 | IRAK-1-4 Inhibitor I 0.058 | ibrutinib -0.005 | [9] -0.021 | ralimetinib 0.02 | [10] -0.032 | [11] 0.028 | [12] -0.037 | [13] -0.01 | [14] 0.052 | [15] 0 | [16] -0.004

GET4 (UniProt Q7L5D6)
inactive: erlotinib 0.019 | [1] -0.11 | [2] -0.011 | [3] -0.035 | [4] 0.011 | [5] 0.011 | [6] -0.007 | [7] -0.01 | [8] 0.008 | IRAK-1-4 Inhibitor I 0.03 | ibrutinib 0.007 | [9] 0.01 | ralimetinib 0.007 | [10] -0.022 | [11] 0.026 | [12] 0.03 | [13] -0.013 | [14] -0.011 | [15] -0.016 | [16] 0.027

GCLM (UniProt P48507)
inactive: erlotinib -0.012 | [1] 0.021 | [2] 0.006 | [3] 0.007 | [4] 0.023 | [5] -0.001 | [6] -0.034 | [7] 0.014 | [8] 0.039 | IRAK-1-4 Inhibitor I 0.016 | ibrutinib 0.006 | [9] -0.009 | ralimetinib 0.01 | [10] -0.047 | [11] -0.028 | [12] 0.006 | [13] -0.007 | [14] 0.024 | [15] -0.026 | [16] -0.006

GFM2 (UniProt Q969S9)
inactive: erlotinib -0.003 | [1] -0.159 | [2] -0.031 | [3] -0.031 | [4] 0.046 | [5] 0 | [6] -0.071 | [7] 0.022 | [8] 0.062 | IRAK-1-4 Inhibitor I -0.035 | ibrutinib -0.064 | [9] -0.035 | ralimetinib 0.03 | [10] -0.025 | [11] -0.02 | [12] -0.056 | [13] 0.037 | [14] -0.047 | [15] 0.08 | [16] -0.032
